From article PMC6503760
Results are given in words; binding and its absence hold for the method and conditions named. Values belong to the binder of their own block, whether it stands above or below them.

Assays:
[1] = target: Arabidopsis thaliana SOBIR1 complete extracellular region (residues 1–283) (Arabidopsis thaliana) (UniProt Q9SKB2); experiment: condition: 200 µg of protein in 100 µl (SEC); 100 µg of protein in 50 µl (RALS); SEC + other: SEC with right-angle light scattering (RALS); Superdex 200 Increase; 20 mM sodium citrate pH 5.0, 250 mM NaCl; RALS/RI detection at a column temperature of 35°C; oligomeric state of the ectodomain in solution; both purified
[2] = target: Arabidopsis thaliana SOBIR1 ectodomain (residues 1–270) (Arabidopsis thaliana) (UniProt Q9SKB2); experiment: crystal structure; hanging drops, 20 mg/ml protein in 20 mM sodium citrate pH 5.0, 150 mM NaCl; 25% PEG 3350, 1 M LiCl, 0.1 M sodium acetate pH 5.5; space group P6_(5), dimer in the asymmetric unit; 1.55 Å; both purified
[3] = target: Arabidopsis thaliana SOBIR1 ectodomain (residues 1–270) (Arabidopsis thaliana) (UniProt Q9SKB2); experiment: condition: 200 µg of protein in 100 µl (SEC); 100 µg of protein in 50 µl (RALS); SEC + other: SEC with right-angle light scattering (RALS); Superdex 200 Increase; 20 mM sodium citrate pH 5.0, 250 mM NaCl; RALS/RI detection at a column temperature of 35°C; oligomeric state of the ectodomain in solution; both purified

binding [1]: no binding
B1: Arabidopsis thaliana SOBIR1 complete extracellular region (residues 1–283) (domain or fragment, UniProt Q9SKB2 32-283)
chain: VEWLDIDSSDLKALQVIETELGVNSQRSSASDVNPCGRRGVFCERRHSATTGEYVLRVTRLVYRSRSLTGTISPVIGMLSELKELTLSNNQLVNAVPVDILSCKQLEVLDLRKNRFSGQIPGNFSSLSRLRILDLSSNKLSGNLNFLKNLRNLENLSVANNLFSGKIPEQIVSFHNLRFFDFSGNRYLEGPAPVMSSIKLQTSPHQTRHILAETPTSSPTNKPNNSTTSKAPKGAPKPGKLKKKKKKSKKKK

binding [2]: no binding
binding [3]: no binding
B2: Arabidopsis thaliana SOBIR1 ectodomain (residues 1–270) (domain or fragment, UniProt Q9SKB2 32-270)
chain: VEWLDIDSSDLKALQVIETELGVNSQRSSASDVNPCGRRGVFCERRHSATTGEYVLRVTRLVYRSRSLTGTISPVIGMLSELKELTLSNNQLVNAVPVDILSCKQLEVLDLRKNRFSGQIPGNFSSLSRLRILDLSSNKLSGNLNFLKNLRNLENLSVANNLFSGKIPEQIVSFHNLRFFDFSGNRYLEGPAPVMSSIKLQTSPHQTRHILAETPTSSPTNKPNNSTTSKAPKGAPKPG
modifications: N-glycosylated; N-glycan attached to Asn154
